Taken from: PubChem BioAssay AID652272 (Drosophila RNAi Screening Center, 2013)
The screen tested about 21,000 reagents; this is a random part of those with a known target gene and a result. Over the whole deposit, 503 (2.4%) are marked active. 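Raw plate light values, not normalised; calls rest on replicate z-scores that were not deposited; hits include reporter decreases as well as increases.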 A number with no mark means an inactive call. Names joined by + are all predicted targets of the reagent. No sequences are given here. The record does not give: the amount of reagent, the time to read-out.

- Aim: 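Genome-wide knock-down search for components of Hedgehog signalling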 (primary screen)
- System: Drosophila clone 8 (Cl8) cells
- Reagents: long dsRNA against Drosophila genes
- Measured: 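Firefly light from a Hedgehog-responsive ptc promoter reporter and Renilla reference light, both read on a plate reader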
- Direction: firefly Hh reporter signal: higher = more ptc reporter light; Renilla reference signal: higher = more Renilla control light
- Call rule: 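Called a hit if the two-replicate mean z-score lies below -2 or above +3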
- Calls: active = hit: reporter lowered or raised; inactive = not a hit

Silencing of Rbbp5 + CG6434 (retired record) [SID104190427] gave: firefly Hh reporter signal, replicate 1 = 1.10e5; firefly Hh reporter signal, replicate 2 = 1.27e5; Renilla reference signal, replicate 1 = 3768; Renilla reference signal, replicate 2 = 3418.
Knock-down of Lnk [SID104196521] came out at: firefly Hh reporter signal, replicate 1 = 80470; firefly Hh reporter signal, replicate 2 = 95140; Renilla reference signal, replicate 1 = 1721; Renilla reference signal, replicate 2 = 2705.
Silencing of Sec63 [SID104190794] gave: firefly Hh reporter signal, replicate 1 = 62355; firefly Hh reporter signal, replicate 2 = 6.23e5; firefly Hh reporter signal, replicate 3 = 71200; Renilla reference signal, replicate 1 = 8474; Renilla reference signal, replicate 2 = 27741.
After knock-down of Atg12 [SID104189595], the screen gave firefly Hh reporter signal, replicate 1 = 41656; firefly Hh reporter signal, replicate 2 = 63965; firefly Hh reporter signal, replicate 3 = 86842; Renilla reference signal, replicate 1 = 5289; Renilla reference signal, replicate 2 = 6905.
With knock-down of CG13613 [SID104194408] the results were firefly Hh reporter signal, replicate 1 = 4.69e5; firefly Hh reporter signal, replicate 2 = 99265; Renilla reference signal, replicate 1 = 22724; Renilla reference signal, replicate 2 = 3234.
Against alphaKap4 [SID104189615], the values are firefly Hh reporter signal, replicate 1 = 48000; firefly Hh reporter signal, replicate 2 = 42338; Renilla reference signal, replicate 1 = 2850; Renilla reference signal, replicate 2 = 3590.
Knock-down of Np [SID104185881] came out at: firefly Hh reporter signal, replicate 1 = 92049; firefly Hh reporter signal, replicate 2 = 71018; Renilla reference signal, replicate 1 = 2450; Renilla reference signal, replicate 2 = 6784.
Silencing of Np [SID104186886] gave: firefly Hh reporter signal, replicate 1 = 1.35e5; firefly Hh reporter signal, replicate 2 = 80893; Renilla reference signal, replicate 1 = 2485; Renilla reference signal, replicate 2 = 6568.
CG30158 [SID104184748] gave firefly Hh reporter signal, replicate 1 = 1.16e5 (active); firefly Hh reporter signal, replicate 2 = 1.90e5; Renilla reference signal, replicate 1 = 4080; Renilla reference signal, replicate 2 = 11643.
Silencing of CG30158 [SID104184766] resulted in: firefly Hh reporter signal, replicate 1 = 97154; firefly Hh reporter signal, replicate 2 = 66405; Renilla reference signal, replicate 1 = 2168; Renilla reference signal, replicate 2 = 5875.
CG30158 [SID104184767] showed firefly Hh reporter signal, replicate 1 = 1.07e5; firefly Hh reporter signal, replicate 2 = 74608; Renilla reference signal, replicate 1 = 2697; Renilla reference signal, replicate 2 = 6538.
Against CG30158 [SID104184804], the entry reads firefly Hh reporter signal, replicate 1 = 1.13e5; firefly Hh reporter signal, replicate 2 = 73828; Renilla reference signal, replicate 1 = 2804; Renilla reference signal, replicate 2 = 6672.
For Tgt [SID104180464], the entry reads firefly Hh reporter signal, replicate 1 = 75619; firefly Hh reporter signal, replicate 2 = 56570; Renilla reference signal, replicate 1 = 3272; Renilla reference signal, replicate 2 = 2672.
Silencing of CG10077 [SID104189483] came out at: firefly Hh reporter signal, replicate 1 = 82000; firefly Hh reporter signal, replicate 2 = 1.10e5; Renilla reference signal, replicate 1 = 2987; Renilla reference signal, replicate 2 = 3568.
goe [SID104199137] gave firefly Hh reporter signal, replicate 1 = 79936; firefly Hh reporter signal, replicate 2 = 1.96e5; Renilla reference signal, replicate 1 = 2115; Renilla reference signal, replicate 2 = 8197.
Silencing of CG11927 [SID104180129] gave: firefly Hh reporter signal, replicate 1 = 65984; firefly Hh reporter signal, replicate 2 = 92954; Renilla reference signal, replicate 1 = 3146; Renilla reference signal, replicate 2 = 3393.
RpS11 [SID104187081] scored firefly Hh reporter signal, replicate 1 = 2.97e5 (active); firefly Hh reporter signal, replicate 2 = 72912; firefly Hh reporter signal, replicate 3 = 29616; Renilla reference signal, replicate 1 = 27152; Renilla reference signal, replicate 2 = 4196.
CG43795 + SkpF [SID104183912] gave firefly Hh reporter signal, replicate 1 = 76716; firefly Hh reporter signal, replicate 2 = 49056; Renilla reference signal, replicate 1 = 1896; Renilla reference signal, replicate 2 = 4108.
After knock-down of CG18190 [SID104186506], the screen gave firefly Hh reporter signal, replicate 1 = 1.04e5; firefly Hh reporter signal, replicate 2 = 44119; Renilla reference signal, replicate 1 = 2123; Renilla reference signal, replicate 2 = 2034.
With knock-down of spartin [SID104191979], the record shows firefly Hh reporter signal, replicate 1 = 1.55e5; firefly Hh reporter signal, replicate 2 = 1.77e5; Renilla reference signal, replicate 1 = 5616; Renilla reference signal, replicate 2 = 5377.
niki [SID104194077] scored firefly Hh reporter signal, replicate 1 = 6.16e5; firefly Hh reporter signal, replicate 2 = 1.34e5; Renilla reference signal, replicate 1 = 32040; Renilla reference signal, replicate 2 = 4252.

Reformatted: results already given.
gene knocked down | PubChem SID | firefly Hh reporter signal, replicate 1 | firefly Hh reporter signal, replicate 2 | firefly Hh reporter signal, replicate 3 | Renilla reference signal, replicate 1 | Renilla reference signal, replicate 2
Tgt | SID104180464 | 75619 | 56570 | – | 3272 | 2672
CG10077 | SID104189483 | 82000 | 1.10e5 | – | 2987 | 3568
